Values quoted from earlier work, collected in patent US7534768B2, “Treatment of DNA viral infections” (Henderson Morely Research and Development Ltd., priority 2000, dated 2009).

System: plasma proteins, mainly albumin
Details: cited from earlier work

NS(=O)(=O)c1cc(C(=O)O)c(NCc2ccco2)cc1Cl [frusemide, 4-chloro-N-furfuryl-5-sulfamoylanthranilic acid]
unbound fraction (at therapeutic concentrations): 2.3-4.1%
bound to plasma proteins (plasma concentrations ranging from 1 to 400 mcg/ml, healthy individuals): 91-99%
